Experimental data as given in patent US20240165253A1 (REMEGEN, published 2024).
These are yes or no findings as the source states them, for the method shown. Some results given as binding are weak or reduced against the parent protein; the word gives no strength.

Sequences of proteins named here, by UniProt entry; tags and fusion partners are left off. Residues count along the entry.
UniProt P08581, residues 25-932: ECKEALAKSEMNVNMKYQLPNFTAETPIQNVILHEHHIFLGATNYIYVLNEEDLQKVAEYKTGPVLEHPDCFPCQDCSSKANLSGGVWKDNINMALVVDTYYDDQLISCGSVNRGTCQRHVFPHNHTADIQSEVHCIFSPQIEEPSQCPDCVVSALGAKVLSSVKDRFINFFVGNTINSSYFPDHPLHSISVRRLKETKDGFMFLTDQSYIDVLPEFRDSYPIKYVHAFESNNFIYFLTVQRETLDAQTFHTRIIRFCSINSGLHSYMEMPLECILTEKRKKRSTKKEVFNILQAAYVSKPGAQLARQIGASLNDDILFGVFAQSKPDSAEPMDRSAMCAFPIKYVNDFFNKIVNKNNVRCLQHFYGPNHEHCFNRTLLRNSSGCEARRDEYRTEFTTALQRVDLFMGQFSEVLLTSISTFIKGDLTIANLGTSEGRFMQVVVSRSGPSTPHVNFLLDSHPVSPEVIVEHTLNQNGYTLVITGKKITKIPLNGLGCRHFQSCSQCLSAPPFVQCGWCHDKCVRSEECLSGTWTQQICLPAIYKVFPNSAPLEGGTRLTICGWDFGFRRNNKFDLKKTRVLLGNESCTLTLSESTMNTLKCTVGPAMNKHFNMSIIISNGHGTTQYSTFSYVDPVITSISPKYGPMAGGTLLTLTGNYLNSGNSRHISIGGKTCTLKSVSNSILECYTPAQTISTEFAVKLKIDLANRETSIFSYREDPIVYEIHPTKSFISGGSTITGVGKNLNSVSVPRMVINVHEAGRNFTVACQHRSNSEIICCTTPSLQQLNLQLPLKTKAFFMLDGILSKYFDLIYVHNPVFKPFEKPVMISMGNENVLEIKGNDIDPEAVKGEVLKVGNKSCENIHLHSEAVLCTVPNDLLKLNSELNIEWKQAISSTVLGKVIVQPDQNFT

What was measured:
[1] = molecular target: T1, c-Met protein (UniProt P08581 25-932, limits assumed); experiment: ELISA, plate coated with c-Met protein
T1 construct: The construct is not described; also called c-Met antigen

[2] = molecular target: T2, soluble ED protein (UniProt P08581 25-932, limits assumed); experiment: ELISA, plate coated with soluble ED protein
T2 construct: domain: ED; It is read here as the c-Met extracellular domain because the antibodies are anti-c-Met

binding [1]: binds | binding [2]: binds
B1: anti-c-Met humanized antibody AAJ8D6 (antibody, human IgG1, kappa, V domains shown)
VH: QVQLEQSGPEVVKPGASVKVSCKASGYSFTSYWMHWVRQAPGQGLEWMGMIDPSDSESRLNQKFKDRVTMTVDTPTSTVYMELSSPRSEDTAVYYCARSGYHGTSYWYFDVWGQGTLVTVSS
VL: DIVMTQSPLSLPVTPGEPASISCRSSKSLLHSDGITYLYWYLQKPGQSPQLLIYQMSNLASGVPDRFSGSGSGTDFTLKISRVEAEDVGVYYCAQNLELPPTFGGGTKVEIKR
notes: also called AAJ8D6 antibody
